These results are taken from article doi:10.1101/2023.04.28.538690.

Test [1] addresses T1, SECRET AGENT (SEC), full-length, yeast two-hybrid bait (BD) (Arabidopsis thaliana) (UniProt Q9M8Y0).
T1 sequence: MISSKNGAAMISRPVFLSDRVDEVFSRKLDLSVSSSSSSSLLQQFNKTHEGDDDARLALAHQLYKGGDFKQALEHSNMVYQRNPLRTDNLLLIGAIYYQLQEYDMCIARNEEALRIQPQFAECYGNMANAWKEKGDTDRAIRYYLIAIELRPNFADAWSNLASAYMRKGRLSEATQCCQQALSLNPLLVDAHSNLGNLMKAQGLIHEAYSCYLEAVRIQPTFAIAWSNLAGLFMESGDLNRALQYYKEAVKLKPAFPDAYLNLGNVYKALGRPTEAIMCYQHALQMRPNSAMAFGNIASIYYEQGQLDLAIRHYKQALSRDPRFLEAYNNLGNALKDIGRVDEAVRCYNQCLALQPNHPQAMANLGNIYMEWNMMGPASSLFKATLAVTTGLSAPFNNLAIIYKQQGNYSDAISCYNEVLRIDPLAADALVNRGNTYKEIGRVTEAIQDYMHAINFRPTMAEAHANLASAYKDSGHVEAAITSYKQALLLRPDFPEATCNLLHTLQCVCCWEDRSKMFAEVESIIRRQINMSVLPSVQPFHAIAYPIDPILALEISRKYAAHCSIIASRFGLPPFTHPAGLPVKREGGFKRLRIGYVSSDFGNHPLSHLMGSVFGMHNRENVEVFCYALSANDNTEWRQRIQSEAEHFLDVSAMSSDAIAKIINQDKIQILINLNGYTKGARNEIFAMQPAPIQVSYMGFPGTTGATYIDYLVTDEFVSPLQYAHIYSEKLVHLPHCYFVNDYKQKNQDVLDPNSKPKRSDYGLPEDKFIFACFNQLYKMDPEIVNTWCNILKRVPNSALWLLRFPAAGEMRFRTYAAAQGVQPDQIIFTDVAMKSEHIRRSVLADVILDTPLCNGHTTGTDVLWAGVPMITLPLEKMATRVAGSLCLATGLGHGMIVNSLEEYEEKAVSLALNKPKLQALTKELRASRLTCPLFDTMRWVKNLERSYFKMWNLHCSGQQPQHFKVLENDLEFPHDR
Description: two-hybrid.

Test [2] has as its target T2, SPINDLY (SPY), full-length, yeast two-hybrid bait (BD) (Arabidopsis thaliana) (UniProt Q96301).
T2 sequence: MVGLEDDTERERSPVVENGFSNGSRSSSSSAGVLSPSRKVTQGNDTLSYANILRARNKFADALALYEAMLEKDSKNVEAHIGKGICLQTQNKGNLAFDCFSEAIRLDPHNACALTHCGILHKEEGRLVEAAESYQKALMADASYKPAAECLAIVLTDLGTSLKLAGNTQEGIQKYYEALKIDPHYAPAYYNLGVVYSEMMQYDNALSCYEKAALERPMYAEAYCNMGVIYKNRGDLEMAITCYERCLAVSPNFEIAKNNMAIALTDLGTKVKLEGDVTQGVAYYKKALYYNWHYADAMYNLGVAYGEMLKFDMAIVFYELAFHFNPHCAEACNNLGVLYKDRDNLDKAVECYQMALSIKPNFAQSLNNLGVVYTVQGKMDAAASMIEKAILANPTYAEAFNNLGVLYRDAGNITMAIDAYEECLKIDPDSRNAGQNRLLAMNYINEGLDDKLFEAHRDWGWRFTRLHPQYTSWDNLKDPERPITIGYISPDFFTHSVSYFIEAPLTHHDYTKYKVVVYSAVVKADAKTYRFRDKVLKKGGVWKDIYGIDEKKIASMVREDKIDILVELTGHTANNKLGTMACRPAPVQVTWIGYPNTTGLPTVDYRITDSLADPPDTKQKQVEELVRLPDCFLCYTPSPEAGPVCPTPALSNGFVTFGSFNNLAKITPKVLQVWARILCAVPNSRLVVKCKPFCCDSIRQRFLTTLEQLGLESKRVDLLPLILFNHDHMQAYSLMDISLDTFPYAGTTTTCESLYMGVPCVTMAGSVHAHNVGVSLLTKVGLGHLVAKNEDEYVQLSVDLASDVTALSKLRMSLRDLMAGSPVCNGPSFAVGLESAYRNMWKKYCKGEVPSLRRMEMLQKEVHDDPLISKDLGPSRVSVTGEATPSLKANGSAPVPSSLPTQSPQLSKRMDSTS
As to the kind of experiment: two-hybrid.

The target of test [3] is T3, SECRET AGENT (SEC), full-length, 3xHA-tagged (35S::SEC-3xHA) (Arabidopsis thaliana) (UniProt Q9M8Y0).
T3 sequence: T1 sequence
Description: co-IP.

For test [4], the target named is T4, SPINDLY (SPY), full-length, 3xHA-tagged (35S::SPY-3xHA) (Arabidopsis thaliana) (UniProt Q96301).
T4 sequence: T2 sequence
As to the kind of experiment: co-IP.

The target of test [5] is T5, SPINDLY (SPY) fused to the C-terminal luciferase fragment (35S::SPY-Cluc) (Arabidopsis thaliana) (UniProt Q96301).
T5 sequence: T2 sequence
As to the kind of experiment: split reporter.

For test [6], the target named is T6, SECRET AGENT (SEC) fused to the C-terminal luciferase fragment (35S::SEC-Cluc) (Arabidopsis thaliana) (UniProt Q9M8Y0).
T6 sequence: T1 sequence
As to the kind of experiment: split reporter.

Results are given in words; binding and its absence hold for the method and conditions named. For part of these data: In cells and extracts the contact can be indirect. Some results given as binding are weak or reduced against the parent protein; the word gives no strength. Sequences can lack the tags named with a protein.

B1: SPT N-terminal domain (residues 1-180), yeast two-hybrid prey (AD) (domain or fragment, UniProt Q9FUA4 1-180)
chain: MISQREEREEKKQRVMGDKKLISSSSSSSVYDTRINHHLHHPPSSSDEISQFLRHIFDRSSPLPSYYSPATTTTTASLIGVHGSGDPHADNSRSLVSHHPPSDSVLMSKRVGDFSEVLIGGGSGSAAACFGFSGGGNNNNVQGNSSGTRVSSSSVGASGNETDEYDCESEEGGEAVVDEA
With B1, the binding result in test [1] and in test [2] was “binds” throughout.

B2: SPATULA (SPT), full-length, 3xFLAG-tagged (35S::SPT-3xFLAG) (protein, UniProt Q9FUA4 1-373)
chain: MISQREEREEKKQRVMGDKKLISSSSSSSVYDTRINHHLHHPPSSSDEISQFLRHIFDRSSPLPSYYSPATTTTTASLIGVHGSGDPHADNSRSLVSHHPPSDSVLMSKRVGDFSEVLIGGGSGSAAACFGFSGGGNNNNVQGNSSGTRVSSSSVGASGNETDEYDCESEEGGEAVVDEAPSSKSGPSSRSSSKRCRAAEVHNLSEKRRRSRINEKMKALQSLIPNSNKTDKASMLDEAIEYLKQLQLQVQMLTMRNGINLHPLCLPGTTLHPLQLSQIRPPEATNDPLLNHTNQFASTSNAPEMINTVASSYALEPSIRSHFGPFPLLTSPVEMSREGGLTHPRLNIGHSNANITGEQALFDGQPDLKDRIT
With B2, the binding entry in test [3] and in test [4] was “binds” in each case.

B3: SPATULA (SPT), full-length, yeast two-hybrid prey (AD) (protein, UniProt Q9FUA4 1-373)
chain: B2 chain
Take B3: the binding result in test [1] and in test [2] was “binds” throughout.

B4: SPATULA (SPT) fused to the N-terminal luciferase fragment (35S::SPT-Nluc) (protein, UniProt Q9FUA4 1-373)
chain: B2 chain
As to B4, the binding entry in test [5] and in test [6] was “binds” throughout.

B5: SPT fragment containing only the Amphipathic domain (residues 1-135), yeast two-hybrid prey (AD) (domain or fragment, UniProt Q9FUA4 1-135)
chain: MISQREEREEKKQRVMGDKKLISSSSSSSVYDTRINHHLHHPPSSSDEISQFLRHIFDRSSPLPSYYSPATTTTTASLIGVHGSGDPHADNSRSLVSHHPPSDSVLMSKRVGDFSEVLIGGGSGSAAACFGFSGG
As to B5, the binding result in test [1] and in test [2] was “binds” throughout.

B6: SPT C-terminal truncation (residues 136-373), yeast two-hybrid prey (AD) (domain or fragment, UniProt Q9FUA4 136-373)
chain: GNNNNVQGNSSGTRVSSSSVGASGNETDEYDCESEEGGEAVVDEAPSSKSGPSSRSSSKRCRAAEVHNLSEKRRRSRINEKMKALQSLIPNSNKTDKASMLDEAIEYLKQLQLQVQMLTMRNGINLHPLCLPGTTLHPLQLSQIRPPEATNDPLLNHTNQFASTSNAPEMINTVASSYALEPSIRSHFGPFPLLTSPVEMSREGGLTHPRLNIGHSNANITGEQALFDGQPDLKDRIT
For the molecule B6, the binding entry in test [1] was “binds”; in test [2], “no binding”.
